Experimental data: article PMC8880385 (Pharmaceuticals, 2022)

Key:
O. volvulus pre-adult L5 = assay: Ov L5 viability by endpoint MTT assay; format: cell-based, Onchocerca volvulus; conditions: 1 µM
Method: Briefly, Ov L3 larvae were cultured to the pre-adult/L5 stage in vitro as described by Voronin et al., 2019 [45]. Once larvae reached the L5 stage (after at least 70 days in culture), 8–10 Ov L5 were moved to new transwell inserts in a 24-well plate containing 0.5 mL Ov L4-CMS media seeded with a 3 × 10^4/well Human Umbilical Vein Endothelial Cells (HUVEC) monolayer. Duplicate wells were treated with 1 and/or 10 µM of compound. Ov L5 were exposed to compounds for 14 days (exchanged 50% of media with fresh compound every two days) and then cultured with new media without compound, exchanging 50% of media every 2–3 days, up to day 36. Control Ov L5 were treated with 0.05% DMSO. Concentrations were chosen based on activity in the B. pahangi female motility assay. Motility was assessed visually and ranked on a 0–100% scale every 2–3 days over the course of the assay. At the end of the motility assay, Ov L5 viability was measured by 3-(4,5-dimethylthiazol-2-yl)-2,5-diphenyltetrazolium bromide (MTT) assay. Ov L5 were incubated with 0.1% MTT in PBS at 37 °C for 1 h then visually inspected for blue coloration indicating MTT reduction. Worms were considered dead if <50% of the worm was stained blue, and worms were considered alive if >50% of the worm was stained blue.

in vitro = conditions: dog, MDCK-MDR1
Method: Permeability assays were conducted using 5 µM of each test compound with digoxin as a control. […] electrical resistance was used to verify the integrity of the MDCK-MDR1 monolayer. After compound addition, plates were incubated at 37 °C with 5% CO2 for 1 h. Samples were analyzed by LC–MS/MS and net flux ratio was calculated using basal-to-apical and apical-to-basal permeability.

- Papp A→B (in vitro): < 0.07 ×10⁻⁶ cm/s
- Papp B→A (in vitro): 6.6 ×10⁻⁶ cm/s
- recovery (in vitro): 69%
SMILES: Cc1cc(/C=C/c2ccc3cc(N(C)C)ccc3[n+]2C)c(C)n1-c1ccccc1 [PVP, pyrvinium pamoate, reference compound]
- O. volvulus L5 % inhibition of viability Day 37 (MTT assay) (O. volvulus pre-adult L5): 100%
